From paper PMC7819943, “Rice protein-binding microarrays: a tool to detect cis-acting elements near promoter regions in rice”
The list shows a part of the results.

Chains of the proteins cited; added tags and fusions are not shown.
UniProt Q0JBA9, entry or part of it: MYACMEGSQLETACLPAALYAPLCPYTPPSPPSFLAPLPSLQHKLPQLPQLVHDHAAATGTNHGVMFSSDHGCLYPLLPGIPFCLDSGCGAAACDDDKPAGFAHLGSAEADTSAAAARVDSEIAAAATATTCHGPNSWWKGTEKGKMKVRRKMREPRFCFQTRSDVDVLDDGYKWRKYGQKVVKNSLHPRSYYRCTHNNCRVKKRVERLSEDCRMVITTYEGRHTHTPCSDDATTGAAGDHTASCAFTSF

target: OsWRKY34 (Oryza sativa, UniProt Q0JBA9 1-250); assay: protein-binding microarray (RPBM); PBS, 2% BSA, 51.3 ng/ul salmon testes DNA, 50 uM zinc acetate, 200 nM TF, 25 C, 1 h; high values mean tight binding; conditions: protein: recombinant; tags: N-terminal polyhistidine and DsRed monomer fusion (pET32a); label: CyDye5-dUTP incorporated in the synthesized complementary strand; 3' TTTTT single-stranded linker to array surface; dsDNA, one strand shown
Summary of the method: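 Transcription factors were each fused at the N-terminus to a polyhistidine tag plus DsRed and expressed in E. coli BL21-CodonPlus before Ni–NTA purification. Binding to a double-stranded custom Agilent array was carried out with 200 nM protein at 25 °C for 1 h in PBS, 2% BSA, salmon testes DNA and 50 µM zinc acetate. The binding signal is per-feature fluorescence intensity, in arbitrary units, on an Axon 4000B scanner.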

Question: Which binding signal does the source give for “TCTTTTCGGTCTTTACATTTTCCTCTCATTTTAATCTATTCGGAGTCACCTAGTGCAG” here?
Answer: Its binding signal is 9260 fluorescence intensity (a.u.).

Question: Which binding signal does the source give for “TGCTTGCTTGCTTGGTTTGATTGGTGGAGGTGGGAGGAGTCGGAGTCACCTAGTGCAG” here?
Answer: Its binding signal is 8520 fluorescence intensity (a.u.).

Question: “CTGACGGACACTACTCTACTCCCTCCGCTCGCCGGAGCTACGGAGTCACCTAGTGCAG” was tested. Which binding signal did it give?
Answer: Its binding signal is 9050 fluorescence intensity (a.u.).

Question: How did the binding signal turn out when “TATGCCTAATCCTATTTCGCCCTTTTGTATGAGATTGAGACGGAGTCACCTAGTGCAG” was run?
Answer: The binding signal was 9440 fluorescence intensity (a.u.).

Question: With “GTAGTAGTAGGGGAAATTGTTTTCATCCCTTAAGATATATCGGAGTCACCTAGTGCAG” as the sequence, how does the binding signal read?
Answer: The binding signal was 8470 fluorescence intensity (a.u.).

Question: Which binding signal does the source give for “GCTCCCGTGCCGCCACCGATTCCTCCAACAACGCAAAGCTCGGAGTCACCTAGTGCAG” here?
Answer: Its binding signal is 8850 fluorescence intensity (a.u.).

Question: For “AGTAGGTTGTTGGTTTTGTACCTTTGGGCTCTTTGCCTTTCGGAGTCACCTAGTGCAG”, which binding signal is on record?
Answer: The binding signal was 10900 fluorescence intensity (a.u.).

Question: “ACTCCGCCACCTCCTGCCACTGACGCTCCGGTGCAGCAGCCGGAGTCACCTAGTGCAG” was tested. Which binding signal did it give?
Answer: Its binding signal is 8290 fluorescence intensity (a.u.).

Question: How did the binding signal turn out when “AGATAATCCATTGTTCTAACTGTTCTTTTGGTCTCTTTCACGGAGTCACCTAGTGCAG” was run?
Answer: Its binding signal is 8180 fluorescence intensity (a.u.).

Question: For “CCTCAGCATTCATCTTTGACCCTTAGGACTTATTATCCCTCGGAGTCACCTAGTGCAG”, which binding signal is on record?
Answer: The binding signal was 10500 fluorescence intensity (a.u.).

Question: For “AAACCAAACTACGCCCGTTGGCTGTCGTACTCTTTCGTAACGGAGTCACCTAGTGCAG”, which binding signal is on record?
Answer: The binding signal was 8360 fluorescence intensity (a.u.).

Question: How did the binding signal turn out when “TGAGCCCCTGATGCGCCCCATACTGCCGTCGCCGTCGCCCCGGAGTCACCTAGTGCAG” was run?
Answer: The binding signal was 8720 fluorescence intensity (a.u.).

Question: For “CGCCATCCCCACCGCCGGCCTCGCCCTGTCGCTGCTGCTCCGGAGTCACCTAGTGCAG”, which binding signal is on record?
Answer: The binding signal was 10400 fluorescence intensity (a.u.).

Question: How did the binding signal turn out when “ATTATGTTGTAAAAAATCTACTAGTTTTATGTCTATCTATCGGAGTCACCTAGTGCAG” was run?
Answer: The binding signal was 9130 fluorescence intensity (a.u.).

Question: How did the binding signal turn out when “AAATTGAATCCATGCATGTTTCTTTCAATTTCATCTTAAACGGAGTCACCTAGTGCAG” was run?
Answer: The binding signal was 9100 fluorescence intensity (a.u.).

Question: With “CACATAAGCAAAGTGAGTAGTGGTCTTGGTTTGGCTTTTTCGGAGTCACCTAGTGCAG” as the sequence, how does the binding signal read?
Answer: Its binding signal is 8880 fluorescence intensity (a.u.).

Question: With “TCTCCCGACACAGTGTCTCTCACTAATTCCATTTCGCCGTCGGAGTCACCTAGTGCAG” as the sequence, how does the binding signal read?
Answer: Its binding signal is 10500 fluorescence intensity (a.u.).

Question: Which binding signal does the source give for “TGTGTGTTGTCTTGGAGCGCTTGTCGACGTGACGGGAATGCGGAGTCACCTAGTGCAG” here?
Answer: The binding signal was 9210 fluorescence intensity (a.u.).

Question: For “ATATATACTGCCATGAGACCTATTTGCATGGCTTTGACCACGGAGTCACCTAGTGCAG”, which binding signal is on record?
Answer: The binding signal was 10100 fluorescence intensity (a.u.).

Question: With “CTAGTGGGGTGGTTTTTTGAAATTTTGACCAAATCATCCCCGGAGTCACCTAGTGCAG” as the sequence, how does the binding signal read?
Answer: The binding signal was 8980 fluorescence intensity (a.u.).

Question: How did the binding signal turn out when “ATCGCAGCTATCTCACTCGTTTCGTACAACAGCCAAAAAGCGGAGTCACCTAGTGCAG” was run?
Answer: Its binding signal is 10200 fluorescence intensity (a.u.).

Question: For “CAATAGTCACAAAGCTGCAAGAACTCCACGTCTCGCATCACGGAGTCACCTAGTGCAG”, which binding signal is on record?
Answer: Its binding signal is 8340 fluorescence intensity (a.u.).

Question: Which binding signal does the source give for “GATTGGATTAGGGGATTGGTTGCATTTGTTCTTGATTTTACGGAGTCACCTAGTGCAG” here?
Answer: The binding signal was 15600 fluorescence intensity (a.u.).

Question: For “GCCGAGGGCGCCGCCGGCGTCGTCCGAGCTGTGCCGCGCGCGGAGTCACCTAGTGCAG”, which binding signal is on record?
Answer: Its binding signal is 8640 fluorescence intensity (a.u.).

Question: For “CGTATTCTTTTTTTGCAATTCCATGGCCTATGCAACTTAACGGAGTCACCTAGTGCAG”, which binding signal is on record?
Answer: The binding signal was 11200 fluorescence intensity (a.u.).

Question: How did the binding signal turn out when “TCGTTCTCGTTGTCTCCTCCGCTCCTTGCGCCGCCGCCAACGGAGTCACCTAGTGCAG” was run?
Answer: The binding signal was 13900 fluorescence intensity (a.u.).

Question: Which binding signal does the source give for “GCCGCAAGATGGTGACCACTTCCACAGAGATTTTCGTTTGCGGAGTCACCTAGTGCAG” here?
Answer: The binding signal was 8800 fluorescence intensity (a.u.).

Question: Which binding signal does the source give for “CAATTGCTCCTATGCTTGTGCTTCAAAGGCCATCTTTTTACGGAGTCACCTAGTGCAG” here?
Answer: The binding signal was 8420 fluorescence intensity (a.u.).

Question: For “TATGATTAATACTTTATGCGTGACTTATCTTTTTAATTTTCGGAGTCACCTAGTGCAG”, which binding signal is on record?
Answer: Its binding signal is 8250 fluorescence intensity (a.u.).

Question: With “ACGTACCTTCTCCATCATCCGACGTTCTGCTACGTGAATTCGGAGTCACCTAGTGCAG” as the sequence, how does the binding signal read?
Answer: The binding signal was 12200 fluorescence intensity (a.u.).

Question: For “GCGATTTATCTCCTTTCTGTTTCCGAATTTTATTAGTAGTCGGAGTCACCTAGTGCAG”, which binding signal is on record?
Answer: Its binding signal is 11500 fluorescence intensity (a.u.).

Question: Which binding signal does the source give for “CCCATTAATATCCCGGCCTTTCACACACGGCGGCCCATGCCGGAGTCACCTAGTGCAG” here?
Answer: Its binding signal is 8160 fluorescence intensity (a.u.).

Question: For “ATGGTCTTGGTTTTGGGCGGCACGGTGGCACCTTTGTGCCCGGAGTCACCTAGTGCAG”, which binding signal is on record?
Answer: Its binding signal is 8520 fluorescence intensity (a.u.).

Question: “TCGTTTCTTTGCCAGCTGCGCATCCATTCAGCCGGTCGTACGGAGTCACCTAGTGCAG” was tested. Which binding signal did it give?
Answer: The binding signal was 12700 fluorescence intensity (a.u.).

Question: Which binding signal does the source give for “TCGTTTCGTTTTTTCCTTTTTTTGATCCATCTTGCTGCTACGGAGTCACCTAGTGCAG” here?
Answer: Its binding signal is 8280 fluorescence intensity (a.u.).

Question: Which binding signal does the source give for “GCCTAGATCCGCATTAAACTAGTCTATCTCCAGCAATTTACGGAGTCACCTAGTGCAG” here?
Answer: Its binding signal is 9240 fluorescence intensity (a.u.).

Question: With “ATCCTTTGGATTCTTTTCTTGATCGTTTCTATTCCTAATTCGGAGTCACCTAGTGCAG” as the sequence, how does the binding signal read?
Answer: Its binding signal is 9310 fluorescence intensity (a.u.).

Question: For “TCTTCCCCGCGTTATCAAAGATTTCAATCTCTATAGGTTCCGGAGTCACCTAGTGCAG”, which binding signal is on record?
Answer: The binding signal was 8700 fluorescence intensity (a.u.).

Question: For “AATCCGCTCAGTTTGTACTACGTATTATTATTCATTCTTCCGGAGTCACCTAGTGCAG”, which binding signal is on record?
Answer: The binding signal was 12800 fluorescence intensity (a.u.).

Question: Which binding signal does the source give for “TCTGTTCCCGCAACAACCCTTATCTTTGGTTCCGCTTCGACGGAGTCACCTAGTGCAG” here?
Answer: Its binding signal is 8300 fluorescence intensity (a.u.).

Question: Which binding signal does the source give for “GATTAATATGATTTTCTGCAGTAACTATTCTATAGAATTTCGGAGTCACCTAGTGCAG” here?
Answer: Its binding signal is 9620 fluorescence intensity (a.u.).

Question: For “TTTTGGTCCCCTTATCATCCACATCCAGTTGACCAGTCCCCGGAGTCACCTAGTGCAG”, which binding signal is on record?
Answer: Its binding signal is 11000 fluorescence intensity (a.u.).

Question: For “GCTAGTGGTGTACTGGTGGTCATTGTCATTTGTTTTTCACCGGAGTCACCTAGTGCAG”, which binding signal is on record?
Answer: The binding signal was 14700 fluorescence intensity (a.u.).

Question: Which binding signal does the source give for “GTAAATAGTCTCTGAAATACTCCAGTCTAGTACTCCACATCGGAGTCACCTAGTGCAG” here?
Answer: Its binding signal is 8030 fluorescence intensity (a.u.).

Question: For “AGGGTCATGGATTAGATTTCGATCACTCTTGAGGGTCATGCGGAGTCACCTAGTGCAG”, which binding signal is on record?
Answer: Its binding signal is 8850 fluorescence intensity (a.u.).

Question: How did the binding signal turn out when “GGTTGGTTCTTGTGTGTCCCTAAGCGTGAAAAAAATATCACGGAGTCACCTAGTGCAG” was run?
Answer: Its binding signal is 14200 fluorescence intensity (a.u.).

Question: “CCAGTTCTTCATTCTCCTCTCCCGGTTCTGTTCTTGGTTCCGGAGTCACCTAGTGCAG” was tested. Which binding signal did it give?
Answer: The binding signal was 10800 fluorescence intensity (a.u.).

Question: “TGAATCAACCACGTACGCGGTACTCCTCGTCCTCGCGATCCGGAGTCACCTAGTGCAG” was tested. Which binding signal did it give?
Answer: The binding signal was 8210 fluorescence intensity (a.u.).

Question: With “GCCGATTTTCCCCAATTAACGTGTATTTGTGAGGTTTTTTCGGAGTCACCTAGTGCAG” as the sequence, how does the binding signal read?
Answer: Its binding signal is 11800 fluorescence intensity (a.u.).

Question: Which binding signal does the source give for “CCTCCGTTCAGTTCCATCCACCAAACCAATCAAACGCATTCGGAGTCACCTAGTGCAG” here?
Answer: The binding signal was 8450 fluorescence intensity (a.u.).

Question: For “ATATATATATATATATATATATATATACGCGACTAGAAGACGGAGTCACCTAGTGCAG”, which binding signal is on record?
Answer: The binding signal was 11400 fluorescence intensity (a.u.).

Question: How did the binding signal turn out when “GCGCGGGTCTCTTGCTTTCTTGGCGCTCCCGTCGGCGAGACGGAGTCACCTAGTGCAG” was run?
Answer: Its binding signal is 9750 fluorescence intensity (a.u.).

Question: With “CGTTTCATATTATTATAAGCCGTTTGATTTTTTTCTAATCCGGAGTCACCTAGTGCAG” as the sequence, how does the binding signal read?
Answer: Its binding signal is 8140 fluorescence intensity (a.u.).

Question: How did the binding signal turn out when “CTTAATCGGTATGGGGAGAGTGTTCTTATTGTTTCATTTACGGAGTCACCTAGTGCAG” was run?
Answer: The binding signal was 16800 fluorescence intensity (a.u.).
